In the assay the test system is Lewis lung carcinoma i.m., BDF1 mice, T/C %. Nature of the assay: NCI In Vivo Anticancer Drug Screen. Data for tumor model Lewis Lung Carcinoma (intramuscular) in B6D2F1 (BDF1) mice. Here is the method: The antitumor activity of compounds was measured in mice bearing transplantable tumors. Survival or tumor size were measured and the results are expressed as the measurement made in the treated group (T) divided by the measurement made in the vehicle treated control group (C). The tumor model used in this assay is Lewis Lung Carcinoma (intramuscular) in B6D2F1 (BDF1) mice

The list shows only some results of the screen, not a fair sample: it gathers some chemical classes. Not every dose and run of a compound is shown. T/C: endpoint of the treated group in % of that of the vehicle group. Schedule codes are those of the source, taken here to give the interval after Q, in days (D) or hours (H), and the number of doses after X. Some T/C values are followed by the survivors on the day toxicity was checked; without a count or a note in brackets, all were alive then. Some entries give survivors of the animals treated and no T/C: the source holds a T/C of zero for them, seemingly a mark for toxic or unscored doses. Some doses without a T/C left all or most animals alive at the check, yet need not have been tolerated: survival well below the control is almost never listed, so the zero probably covers shortened survival too. Counts of survivors are from the toxicity check (mostly the fifth day) where no day follows; animals may have died later. Counts of survivors are from the toxicity check, whose day is not always given; animals may have died later. For survival time, the PubChem record calls one and a half times the control and up active, and a quarter to a half above the control has no call in these data; cut-offs in other NCI protocols can differ.

Consider `CC(Cl)CN(CC(C)Cl)C(=O)OCC(N)C(=O)O` (stereo not given), for which the T/C runs as follows: (T/C endpoint: mean tumor weight, dose: 12.5 mg/kg/injection, schedule: Q01DX011 (ip), vehicle: saline, evaluated on day 12, higher T/C = larger tumour) 110 % of control; (T/C endpoint: mean tumor weight, dose: 12.5 mg/kg/injection, schedule: Q01DX011 (ip), vehicle: water, evaluated on day 12, higher T/C = larger tumour) 97 % of control; (T/C endpoint: mean tumor weight, dose: 25.0 mg/kg/injection, schedule: Q01DX011 (ip), vehicle: saline, evaluated on day 12, higher T/C = larger tumour) 82 % of control; (T/C endpoint: mean tumor weight, dose: 25.0 mg/kg/injection, schedule: Q01DX011 (ip), vehicle: water, evaluated on day 12, higher T/C = larger tumour) 119 % of control; (T/C endpoint: mean tumor weight, dose: 50.0 mg/kg/injection, schedule: Q01DX011 (ip), vehicle: saline, evaluated on day 12, higher T/C = larger tumour) 87 % of control; (T/C endpoint: mean tumor weight, dose: 50.0 mg/kg/injection, schedule: Q01DX011 (ip), vehicle: water, evaluated on day 12, higher T/C = larger tumour) 99 % of control. In addition, the T/C is 82 % of control (T/C endpoint: mean tumor weight, dose: 100.0 mg/kg/injection, schedule: Q01DX011 (ip), vehicle: saline, evaluated on day 12, higher T/C = larger tumour); 90 % of control (T/C endpoint: mean tumor weight, dose: 100.0 mg/kg/injection, schedule: Q01DX011 (ip), vehicle: water, evaluated on day 12, higher T/C = larger tumour); 93 % of control (T/C endpoint: mean tumor weight, dose: 200.0 mg/kg/injection, schedule: Q01DX011 (ip), vehicle: saline, evaluated on day 12, higher T/C = larger tumour); 95 % of control (T/C endpoint: mean tumor weight, dose: 200.0 mg/kg/injection, schedule: Q01DX011 (ip), vehicle: water, evaluated on day 12, higher T/C = larger tumour); 99 % of control [6 of 8 alive] (T/C endpoint: mean tumor weight, dose: 400.0 mg/kg/injection, schedule: Q01DX011 (ip), vehicle: water, evaluated on day 12, higher T/C = larger tumour); 104 % of control (T/C endpoint: median survival time, dose: 12.5 mg/kg/injection, schedule: Q01DX010 (ip), vehicle: water, higher T/C = longer survival). Further, the T/C is, setting by setting: (T/C endpoint: median survival time, dose: 12.5 mg/kg/injection, schedule: Q01DX011 (ip), vehicle: saline, higher T/C = longer survival) 116 % of control; (T/C endpoint: median survival time, dose: 25.0 mg/kg/injection, schedule: Q01DX010 (ip), vehicle: water, higher T/C = longer survival) 104 % of control; (T/C endpoint: median survival time, dose: 25.0 mg/kg/injection, schedule: Q01DX011 (ip), vehicle: saline, higher T/C = longer survival) 102 % of control; (T/C endpoint: median survival time, dose: 50.0 mg/kg/injection, schedule: Q01DX010 (ip), vehicle: water, higher T/C = longer survival) 95 % of control; (T/C endpoint: median survival time, dose: 50.0 mg/kg/injection, schedule: Q01DX011 (ip), vehicle: saline, higher T/C = longer survival) 133 % of control; (T/C endpoint: median survival time, dose: 100.0 mg/kg/injection, schedule: Q01DX010 (ip), vehicle: water, higher T/C = longer survival) 114 % of control. Besides, the T/C runs as follows: (T/C endpoint: median survival time, dose: 100.0 mg/kg/injection, schedule: Q01DX011 (ip), vehicle: saline, higher T/C = longer survival) 128 % of control; (T/C endpoint: median survival time, dose: 200.0 mg/kg/injection, schedule: Q01DX010 (ip), vehicle: water, higher T/C = longer survival) 97 % of control; (T/C endpoint: median survival time, dose: 200.0 mg/kg/injection, schedule: Q01DX011 (ip), vehicle: saline, higher T/C = longer survival) 102 % of control.

Turning to `OC(CNCCCl)C(O)C(O)C(O)CNCCCl` (stereo not given), the T/C is 99 % of control (T/C endpoint: mean tumor weight, dose: 2.5 mg/kg/injection, schedule: Q01DX011 (ip), vehicle: saline, evaluated on day 12, higher T/C = larger tumour) and 95 % of control (T/C endpoint: median survival time, dose: 2.5 mg/kg/injection, schedule: Q01DX011 (ip), vehicle: saline, higher T/C = longer survival). Moreover, the survivor count was 5 of 8 (T/C endpoint: mean tumor weight, dose: 5.0 mg/kg/injection, schedule: Q01DX011 (ip), vehicle: saline, higher T/C = larger tumour); 4 of 8 (T/C endpoint: mean tumor weight, dose: 10.0 mg/kg/injection, schedule: Q01DX011 (ip), vehicle: saline, higher T/C = larger tumour); 1 of 8 (T/C endpoint: mean tumor weight, dose: 20.0 mg/kg/injection, schedule: Q01DX011 (ip), vehicle: saline, higher T/C = larger tumour); 5 of 8 (T/C endpoint: median survival time, dose: 5.0 mg/kg/injection, schedule: Q01DX011 (ip), vehicle: saline, higher T/C = longer survival); 4 of 8 (T/C endpoint: median survival time, dose: 10.0 mg/kg/injection, schedule: Q01DX011 (ip), vehicle: saline, higher T/C = longer survival); 1 of 8 (T/C endpoint: median survival time, dose: 20.0 mg/kg/injection, schedule: Q01DX011 (ip), vehicle: saline, higher T/C = longer survival). Further, the survivor count (T/C endpoint: median survival time, dose: 40.0 mg/kg/injection, schedule: Q01DX011 (ip), vehicle: saline, higher T/C = longer survival) is 0 of 8.

In the case of `NC(=O)c1[nH]cnc1/N=N\N(CCCl)CCCl`, the T/C is 36 % of control [7 of 8 alive] (T/C endpoint: mean tumor weight, dose: 25.0 mg/kg/injection, schedule: Q01DX011 (ip), vehicle: other, evaluated on day 12, higher T/C = larger tumour); 20 % of control (T/C endpoint: mean tumor weight, dose: 50.0 mg/kg/injection, schedule: Q01DX011 (ip), vehicle: other, evaluated on day 12, higher T/C = larger tumour); 20 % of control (T/C endpoint: mean tumor weight, dose: 100.0 mg/kg/injection, schedule: Q01DX011 (ip), vehicle: other, evaluated on day 12, higher T/C = larger tumour).

As to `ClCCNc1nc2ccc(Cl)cc2c2ccccc12`, the T/C reads like this: (T/C endpoint: mean tumor weight (est.), dose: 5.0 mg/kg/injection, schedule: Q01DX011 (ip), vehicle: saline with Tween-80, evaluated on day 12, higher T/C = larger tumour) 57 % of control; (T/C endpoint: median survival time, dose: 5.0 mg/kg/injection, schedule: Q01DX011 (ip), vehicle: saline with Tween-80, higher T/C = longer survival) 112 % of control. Moreover, the survivor count is, setting by setting: (T/C endpoint: mean tumor weight (est.), dose: 10.0 mg/kg/injection, schedule: Q01DX011 (ip), vehicle: saline with Tween-80, higher T/C = larger tumour) 2 of 8; (T/C endpoint: median survival time, dose: 10.0 mg/kg/injection, schedule: Q01DX011 (ip), vehicle: saline with Tween-80, higher T/C = longer survival) 2 of 8; (T/C endpoint: median survival time, dose: 20.0 mg/kg/injection, schedule: Q01DX011 (ip), vehicle: saline with Tween-80, higher T/C = longer survival) 0 of 8; (T/C endpoint: median survival time, dose: 40.0 mg/kg/injection, schedule: Q01DX011 (ip), vehicle: saline with Tween-80, higher T/C = longer survival) 0 of 8.

Take `N#C/C(=C\c1ccc(N(CCBr)CCBr)cc1)C(N)=O`: the T/C is 50 % of control [7 of 8 alive] (T/C endpoint: mean tumor weight (est.), dose: 2.0 mg/kg/injection, schedule: Q01DX011 (ip), vehicle: saline with Tween-80, evaluated on day 12, higher T/C = larger tumour) and 100 % of control (T/C endpoint: median survival time, dose: 1.0 mg/kg/injection, schedule: Q01DX011 (ip), vehicle: saline with Tween-80, higher T/C = longer survival). For the same compound, the survivor count is 1 of 8 (T/C endpoint: mean tumor weight (est.), dose: 4.0 mg/kg/injection, schedule: Q01DX011 (ip), vehicle: saline with Tween-80, higher T/C = larger tumour); 7 of 8 (T/C endpoint: median survival time, dose: 2.0 mg/kg/injection, schedule: Q01DX011 (ip), vehicle: saline with Tween-80, higher T/C = longer survival); 1 of 8 (T/C endpoint: median survival time, dose: 4.0 mg/kg/injection, schedule: Q01DX011 (ip), vehicle: saline with Tween-80, higher T/C = longer survival); 0 of 8 (T/C endpoint: median survival time, dose: 8.0 mg/kg/injection, schedule: Q01DX011 (ip), vehicle: saline with Tween-80, higher T/C = longer survival).
